Test results published in article PMC9271091.
For at least one entry, the source does not settle the construct or the ends of the probe. For some assays here: The comparison behind a weaker result is the experiment's own reference, which may not be listed here. For some assays here: At least one verdict was read from the data and is not stated in words by the source.

Amino acid sequences for entries named in this document (tags omitted). Residues count along the entry.
UniProt P48431, 41-109 K42C/W79A: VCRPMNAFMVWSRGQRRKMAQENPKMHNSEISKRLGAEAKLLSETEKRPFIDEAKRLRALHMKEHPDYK
UniProt P48431, 41-109 K42C: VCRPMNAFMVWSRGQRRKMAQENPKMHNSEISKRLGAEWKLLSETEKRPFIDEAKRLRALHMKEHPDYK

Key:
[1] = target: Sox2-HMGBW79A K42C,W79A (Homo sapiens) (UniProt P48431); test: EMSA; conditions: 10 nM DNA; room temperature, 30 min; 5% native PAGE, 0.5x TBE, 4 °C; recombinant protein; label: none (SYBR Gold stain)
[2] = target: Sox2-HMGB K42C (Homo sapiens) (UniProt P48431); test: EMSA; conditions: 10 nM DNA; room temperature, 30 min; 5% native PAGE, 0.5x TBE, 4 °C; recombinant protein; label: none (SYBR Gold stain)

**Q.** Does “GGCCGCTCTAGAGATATCCCCGAGGGTCGAACCATGATGCCGGATCCCCTTTGTTATGCATCTGCCGAGGCCGCTCAATTGGTCGTAGACAGCTCTAGCACCGCTTAAACGCACGTACGCGCTGTCCCCCGCGTTTTAACCGCCAAGGGGATTACTCCCTAGTCTCCAGGCACGTGTCACATATATACATCCTGTTCCAGTGCCGGTGTCGCTTGGGTCCCGAGGATATCAAG (double strand) [233-bp 601 DNA with Sox2 motif]” bind [1]?
**A.** binds more weakly

**Q.** Does “GGCCGCTCTAGAGATATCCCCGAGGGTCGAACCATGATGCCGGATCCCCTTTGTTATGCATCTGCCGAGGCCGCTCAATTGGTCGTAGACAGCTCTAGCACCGCTTAAACGCACGTACGCGCTGTCCCCCGCGTTTTAACCGCCAAGGGGATTACTCCCTAGTCTCCAGGCACGTGTCACATATATACATCCTGTTCCAGTGCCGGTGTCGCTTGGGTCCCGAGGATATCAAG (double strand) [233-bp 601 DNA with Sox2 motif]” bind [2]?
**A.** binds
